PubChem BioAssay AID493014 (National Center for Advancing Translational Sciences (NCATS), 2011)
The other results are listed elsewhere or left out. Further columns of the screen follow, without active or inactive calls. The list favours compounds with an active or inconclusive main result. Words in brackets tell the shape of the fitted curve; partial curves, single points and poor fits give uncertain potencies.

Test: qHTS Assay to Find Inhibitors of Chronic Active B-Cell Receptor Signaling
Settings: ABC-DLBCL IkBa-CBG/CBR reporter, luminescence ratio (green luciferase fused to IkBa over red control in TMD8 lymphoma cells), 4 h
How it was run: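 Doxycycline induced both beetle luciferases in TMD8 lymphoma cells; IKK-driven degradation limits the IkappaBalpha-fused green signal, while red luminescence normalises for cell number and nonspecific effects. Compounds tested up to 46 uM, 4 hrs.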

[1] = measured here: CBR red luminescence, cell number
[2] = measured here: IkBa-CBG green luminescence

| Compound | AC50 [1] | AC50 [2] |
| --- | --- | --- |
| O=c1oc2ccccc2cc1-c1csc(Nc2ccc(O)cc2)n1 | 28.2 µM [falling, single point] |  |
| O=C(Cn1ncc2c1-c1ccccc1OC2)N1CCN(Cc2ccc3c(c2)OCO3)CC1 | 6.51 µM [falling, single point] |  |
| Cc1cc(C)nc(NS(=O)(=O)c2ccc(NC(=O)CCC3COc4ccccc4O3)cc2)n1 (stereo not given) | 0.731 µM [falling, partial curve, poor fit] |  |
| c1ccc(N2CCN(c3nc(NCc4ccco4)c4ccccc4n3)CC2)cc1 | 3.66 µM [rising, partial curve, poor fit] |  |
| COc1ccc2c(c1)c(CC(=O)Nc1ccc(C(C)=O)cc1)c(C)n2C(=O)c1ccc(Cl)cc1 | 2.59 µM [falling, partial curve, poor fit] |  |
| CCOC(=O)c1cnc2c(OC)cccc2c1N1CCN(c2ccc(OC)cc2)CC1 | 13 µM [falling, single point] |  |
| Cc1ccc(NC(=O)/C=C/c2cccc([N+](=O)[O-])c2)nc1 | 5.01 µM [rising, partial curve, poor fit] |  |
| Cc1nc2ncnn2c(N2CCN(S(=O)(=O)c3ccc(Br)cc3)CC2)c1C | 14.1 µM [rising, partial curve, poor fit] |  |
| Cc1ccc(NC(=O)NC(=O)CN2CCN(c3ccc(O)cc3)CC2)c(C)c1 | 14.1 µM [rising, partial curve, poor fit] |  |
| COc1ccc(/C=N\NC(=O)c2cccc([N+](=O)[O-])c2)cc1Cn1cc([N+](=O)[O-])cn1 | 3.16 µM [rising, single point] |  |
| CC(=O)Nc1ccc(N2C(C(C)=O)=NN(c3ccc(Cl)cc3)C2c2sccc2C)cc1 (stereo not given) | 7.31 µM [falling, partial curve] |  |
| Cc1cc(C)nc(S/C=C/C(=O)c2ccccc2F)n1 | 6.31 µM [rising, single point] | 2.82 µM [falling, full curve, poor fit] |
| CC1CCCC(C)N1CCNC(=O)Nc1ccc(Cl)cc1 (stereo not given) | 2.31 µM [rising, partial curve, poor fit] |  |
| CC(C)C(=O)Nc1nnc(Cc2ccccc2)s1 | 2.82 µM [rising, partial curve, poor fit] |  |
| CCN(CC)CCCn1c2c(c(SCC(=O)Nc3nc4ccccc4s3)nc1=O)CCC2 | 20.6 µM [falling, single point] |  |
| CC(=O)c1cc2c(cc1NS(=O)(=O)c1ccc(C)cc1)OCO2 | 14.6 µM [falling, single point] |  |
| CSc1ccc(/C=N/NC(=O)c2sccc2C)cc1 | 0.184 µM [falling, full curve] |  |
| COc1ccc(NC(=O)c2cc3n(n2)C(C(F)(F)F)CC(c2ccc4c(c2)OCO4)N3)cc1OC (stereo not given) | 7.94 µM [falling, partial curve, poor fit] |  |
| COc1ccc(-c2nnc3n(CCc4ccccc4)c(=O)c4ccccc4n23)c(OC)c1 | 0.517 µM [falling, full curve, poor fit] |  |
| COc1cc(CCC(=O)OCC(=O)Nc2cccc(S(=O)(=O)N(C)C)c2)cc(OC)c1OC | 23.1 µM [rising, partial curve, poor fit] |  |
| O=C1NC(=S)N/C1=C/c1cc([N+](=O)[O-])ccc1N1CCOCC1 | 12.6 µM [rising, partial curve] |  |

In the list so far, 2 have two or more sulfur atoms.

| Compound | AC50 [1] | AC50 [2] |
| --- | --- | --- |
| CCN(CC)CCCn1c2c(c(SCC(=O)Nc3nc4ccccc4s3)nc1=O)CCC2 | 20.6 µM [falling, single point] |  |
| CSc1ccc(/C=N/NC(=O)c2sccc2C)cc1 | 0.184 µM [falling, full curve] |  |

Next entries:

| Compound | AC50 [1] | AC50 [2] |
| --- | --- | --- |
| CC(C)NS(=O)(=O)c1ccc(CCC(=O)NCc2ccco2)cc1 | 3.26 µM [falling, full curve, poor fit] |  |
| O=C1/C(=C/c2cccs2)SC(=S)N1c1ccccc1 | 0.501 µM [rising, full curve, poor fit] |  |
| CC(C)OC(=O)c1ccc(OC(=O)c2cccnc2)cc1 | 20.6 µM [falling, partial curve] |  |
| O=C1NCCN1CCNS(=O)(=O)c1ccc2ccccc2c1 | 6.31 µM [falling, single point] |  |
| O=C(O)c1cccc(N2C(=O)c3cccc(Oc4ccc(Cl)cc4)c3C2=O)c1 | 5.17 µM [falling, partial curve] | 20.6 µM [rising, partial curve, poor fit] |
| CC1CC(C)CN(C(=O)CCCNC(=O)c2ccc(Cl)cc2)C1 (stereo not given) | 12.6 µM [falling, single point] |  |
| Cc1ccc(CNC(=O)NC2CCCCC2)cc1 | 29.1 µM [rising, single point] |  |
| COc1ccc(C2C(C#N)=C(N)Oc3cc(N)ccc32)cc1OC (stereo not given) | 35.5 µM [falling, single point] |  |
| Cc1c(C#N)c(N=CN(C)C)c(C(=O)c2ccccc2)n1-c1ccccc1 | 6.51 µM [rising, full curve] |  |
| Cc1[nH]c2ccccc2c1/C=N/NC(=O)c1cc(-c2ccncc2)nc2ccccc12 | 6.31 µM [rising, single point] |  |
| O=C(Nc1ccc(Cl)c(Cl)c1)N1CCOCC1 | 1.78 µM [rising, partial curve, poor fit] |  |
| COc1ccccc1NC(=O)CSc1nnc(CNC(=O)COc2ccc(Cl)cc2)o1 | 3.16 µM [rising, single point] |  |
| COc1ccc(CNc2ncc(-c3ccc(Br)cc3)n2C)cc1OC | 2.82 µM [falling, partial curve, poor fit] |  |
| Cc1ccc(CN(C(=O)c2csnn2)C(C(=O)NC2CCCC2)c2ccc(C)o2)cc1 (stereo not given) | 3.66 µM [falling, full curve, poor fit] |  |
| O=C(Nc1c(C(=O)O)[nH]c2ccccc12)NC1CCCCC1 | 3.98 µM [falling, full curve, poor fit] |  |
| CC(=O)c1ccc(Nc2nc3ccc(C)cc3n3cnnc23)cc1 | 0.316 µM [rising, full curve, poor fit] |  |
| COc1cc(O)c(C(CC(=O)N2CCCC2)c2cc(OC)c(OC)c(OC)c2)c(OC)c1 (stereo not given) | 12.6 µM [rising, single point] |  |
| O=C(/C=C/c1ccco1)NC(=S)Nc1ccccc1Br | 35.5 µM [falling, single point] |  |
| CC(C)[C@H]1CN(C)CCN1Cc1cn(C)nc1-c1cccc(Cl)c1 | 11.2 µM [falling, partial curve, poor fit] |  |
| CC(=O)Nc1cc(C(=O)NCc2ccc(C)cc2)ccc1S(=O)(=O)c1ccc(Cl)cc1 | 0.501 µM [rising, full curve, poor fit] |  |
| Cc1ccc(NC(=S)N=Nc2c(O)n(C)c3ccc(S(=O)(=O)N4CCOCC4)cc23)cc1 | 29.1 µM [rising, single point] |  |

| Compound | AC50 [1] | AC50 [2] |
| --- | --- | --- |
| NC(=O)c1csc(-c2ccncc2)n1 | 6.51 µM [falling, partial curve] |  |
| CCc1ccc(OCCCC(=O)NCc2ccco2)cc1 | 35.5 µM [rising, partial curve, poor fit] |  |
| COc1cc2c(cc1NC(=O)CSc1ccccn1)oc1ccccc12 | 0.891 µM [falling, full curve] |  |
| Cc1cccc(N=C2NC(=O)/C(=C/c3cccnc3)S2)c1 | 12.6 µM [falling, single point] |  |
| CN(CC(CC(=O)Nc1nncs1)c1ccccc1)S(=O)(=O)c1ccc(Br)cc1 (stereo not given) | 17.8 µM [falling, partial curve, poor fit] |  |
| CCCCN(C)CCCNC(=O)C1CCC(CNS(=O)(=O)c2c(C)cc(C)cc2C)CC1 (stereo not given) | 6.31 µM [falling, single point] |  |
| O=C(Nc1ccc(F)cc1F)c1ccc(S(=O)(=O)N2CCCCC2)cc1 | 12.6 µM [falling, single point] |  |
| O=C(N/N=C/c1ccncc1)c1ccc2c(c1)OCO2 | 5.01 µM [falling, partial curve] |  |
| COC(=O)C1C(c2ccc(Br)cc2)Nc2nnc(C(F)(F)F)n2C1(C)O (stereo not given) | 20 µM [falling, single point] |  |
| COc1ccc(C2=NN(C(=O)c3ccccc3)C(c3ccc(OC)c(OC)c3)C2)c(OC(C)=O)c1 (stereo not given) | 0.562 µM [rising, full curve, poor fit] |  |
| COc1ccc2c3c(cccc13)OC2=O | 35.5 µM [rising, single point] |  |
| Cc1ccc(C)c(NC(CC(=O)c2ccccc2)C(=O)OCC(=O)c2cccs2)c1 (stereo not given) | 6.51 µM [rising, partial curve, poor fit] |  |
| O=C(O)C(c1ccccc1)N1C(=O)/C(=C\c2ccc(-c3cccc(Cl)c3)o2)SC1=S (stereo not given) | 22.4 µM [falling, partial curve, poor fit] |  |
| CCOc1cc(CNC2CCCC2)cc(Cl)c1OCc1ccc(F)cc1 | 9.2 µM [falling, partial curve, poor fit] | 13 µM [rising, partial curve, poor fit] |
| O=C(O)CCCC(=O)Nc1ccccc1C(=O)O | 35.5 µM [falling, single point] |  |
| CCc1cc2c(NCc3ccccc3)nc(C)nc2s1 | 14.1 µM [falling, partial curve] |  |
| COC(=O)c1ccc(/C=N/NS(=O)(=O)c2cc(C)ccc2C)cc1 |  | 3.26 µM [falling, full curve] |
| COc1ccccc1/C=C/C=N/N1CCN(Cc2ccc(Cl)cc2)CC1 | 22.4 µM [falling, single point] |  |
| CC1CCN(C(=O)CN(c2ccc(Cl)c(C(F)(F)F)c2)S(C)(=O)=O)CC1 | 13 µM [falling, partial curve, poor fit] |  |
| CC(C)(C)c1ccc(OC(=O)N2CCOCC2)cc1 | 14.1 µM [rising, partial curve, poor fit] |  |
